No constants are given. Whether binding was seen depends on the method and setting. Binding seen in cells or lysates may run through a third protein. Here binding means that the protein was enriched with, or labelled near, the bait; the list need not be complete.
Assays:
[1] = molecular target: Flag-tagged EIF3H (stably expressed in HCT116) (UniProt O15372); assay: affinity purification with mass spectrometry; HCT116 cells stably expressing Flag-tagged EIF3H or HAX1, lysed in NP-40 buffer; anti-Flag M2 beads; eluate on SDS-PAGE, LC-MS/MS
[2] = molecular target: Flag-tagged HAX1 (stably expressed in HCT116) (UniProt O00165); assay: as above

Sequences of proteins named here, by UniProt entry; tags and fusion partners are left off.
UniProt O15372: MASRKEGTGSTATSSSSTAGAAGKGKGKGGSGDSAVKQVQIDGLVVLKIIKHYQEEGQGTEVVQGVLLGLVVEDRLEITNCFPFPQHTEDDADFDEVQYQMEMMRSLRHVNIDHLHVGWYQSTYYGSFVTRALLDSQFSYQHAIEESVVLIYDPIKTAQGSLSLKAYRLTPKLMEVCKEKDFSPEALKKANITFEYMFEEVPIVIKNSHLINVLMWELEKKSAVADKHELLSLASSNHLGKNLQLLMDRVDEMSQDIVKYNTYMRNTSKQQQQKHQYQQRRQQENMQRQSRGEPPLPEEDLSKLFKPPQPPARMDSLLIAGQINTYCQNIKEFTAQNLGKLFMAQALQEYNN
UniProt P60228: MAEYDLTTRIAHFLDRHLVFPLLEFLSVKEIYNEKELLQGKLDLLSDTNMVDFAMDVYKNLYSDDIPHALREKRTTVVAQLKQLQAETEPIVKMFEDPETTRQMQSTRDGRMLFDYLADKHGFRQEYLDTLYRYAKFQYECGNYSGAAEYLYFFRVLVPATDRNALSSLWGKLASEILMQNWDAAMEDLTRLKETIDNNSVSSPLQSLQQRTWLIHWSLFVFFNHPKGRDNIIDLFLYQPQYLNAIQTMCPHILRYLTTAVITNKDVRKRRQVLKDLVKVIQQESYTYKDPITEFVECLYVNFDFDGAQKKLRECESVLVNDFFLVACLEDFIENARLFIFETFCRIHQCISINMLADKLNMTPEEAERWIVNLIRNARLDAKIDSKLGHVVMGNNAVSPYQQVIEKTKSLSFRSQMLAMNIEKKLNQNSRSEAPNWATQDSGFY
UniProt Q9Y297: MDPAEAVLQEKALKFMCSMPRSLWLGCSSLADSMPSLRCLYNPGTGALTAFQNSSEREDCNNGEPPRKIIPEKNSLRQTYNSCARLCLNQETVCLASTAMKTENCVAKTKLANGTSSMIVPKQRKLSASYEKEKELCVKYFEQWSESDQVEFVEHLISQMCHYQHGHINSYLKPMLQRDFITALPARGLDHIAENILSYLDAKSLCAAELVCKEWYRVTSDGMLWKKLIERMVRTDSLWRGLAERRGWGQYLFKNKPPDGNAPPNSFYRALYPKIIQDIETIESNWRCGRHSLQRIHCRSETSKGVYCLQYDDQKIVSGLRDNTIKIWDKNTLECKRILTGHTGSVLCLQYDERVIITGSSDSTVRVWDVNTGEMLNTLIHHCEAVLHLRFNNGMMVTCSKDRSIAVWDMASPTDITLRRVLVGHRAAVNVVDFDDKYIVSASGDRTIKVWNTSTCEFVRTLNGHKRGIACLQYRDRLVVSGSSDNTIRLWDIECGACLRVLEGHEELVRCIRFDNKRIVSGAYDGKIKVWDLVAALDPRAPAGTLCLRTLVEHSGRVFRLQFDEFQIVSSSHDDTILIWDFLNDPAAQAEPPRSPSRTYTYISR

binding [1] | binding [2] | Substance
binds |  | EIF3E, endogenous in HCT116 (from UniProt P60228 1-445)
binds |  | HAX1 (HS1 associated protein X-1), endogenous in HCT116 (from UniProt O00165 1-279)
 | binds | RAF1, endogenous in HCT116 (from UniProt P04049 1-648)
 | binds | βTrCP, endogenous in HCT116 (from UniProt Q9Y297 1-605)

Reference: publication PMC10957977
